In US20140051815A1, “ORGANIC SULFONIC ACID COMPOUND, DOPANT HAVING SAME, AND CONDUCTIVE POLYMER COMPLEX HAVING THE DOPANT” (Ajou University Industry-Academic Cooperation Foundation, priority 2011, published 2014):
Some results were stated once for a whole list of compounds, not compound by compound.

Assay: Acidity / pH of doping solution, titration with 0.1 N KOH
Assay type: physicochemical
Settings: dopant at 86%, 85%, 71% sulfonic acid conversion
Text: In order to confirm a doping function of the dopants of Examples, pH of a doping solution was checked by using a 0.1 N KOH solution. […] Therefore, a function as a dopant could be confirmed.

Row | SMILES | pH
1 | O=S(=O)(O)CCCOc1ccc(O)cc1 [Dopant II] | less than 2
2 | Cc1cccc(OCCCS(=O)(=O)O)c1 [Dopant I] | less than 2
